Test results: publication PMC8206348
No constants are given. Whether binding was seen depends on the method and setting. Binding seen in cells or lysates may run through a third protein. Some entries that bind do so weakly or less than the wild type. For some of these results: Sequences can lack the tags named with a protein.

T1: TSSC4 ΔHom2-GFP (human) (UniProt Q9Y5U2)
T1 sequence: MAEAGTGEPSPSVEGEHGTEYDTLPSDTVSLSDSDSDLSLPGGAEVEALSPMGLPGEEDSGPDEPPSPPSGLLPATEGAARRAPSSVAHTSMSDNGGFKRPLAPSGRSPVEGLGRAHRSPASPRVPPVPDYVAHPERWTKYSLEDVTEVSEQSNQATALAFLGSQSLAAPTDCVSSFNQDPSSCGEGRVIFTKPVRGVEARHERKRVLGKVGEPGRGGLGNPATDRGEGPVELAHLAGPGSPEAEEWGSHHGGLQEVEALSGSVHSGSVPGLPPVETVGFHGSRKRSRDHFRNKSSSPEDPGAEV

T2: TSSC4 Δ51–100-GFP (human) (UniProt Q9Y5U2)
T2 sequence: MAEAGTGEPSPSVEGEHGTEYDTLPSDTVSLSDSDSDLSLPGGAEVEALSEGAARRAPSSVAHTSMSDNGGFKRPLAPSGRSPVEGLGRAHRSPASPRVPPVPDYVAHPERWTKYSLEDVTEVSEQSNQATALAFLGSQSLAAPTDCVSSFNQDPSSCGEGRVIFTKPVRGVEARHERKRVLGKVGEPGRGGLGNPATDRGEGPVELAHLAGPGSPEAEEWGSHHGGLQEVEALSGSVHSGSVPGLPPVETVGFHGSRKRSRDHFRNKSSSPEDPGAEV

T3: TSSC4 Δ151–200-GFP (human) (UniProt Q9Y5U2)
T3 sequence: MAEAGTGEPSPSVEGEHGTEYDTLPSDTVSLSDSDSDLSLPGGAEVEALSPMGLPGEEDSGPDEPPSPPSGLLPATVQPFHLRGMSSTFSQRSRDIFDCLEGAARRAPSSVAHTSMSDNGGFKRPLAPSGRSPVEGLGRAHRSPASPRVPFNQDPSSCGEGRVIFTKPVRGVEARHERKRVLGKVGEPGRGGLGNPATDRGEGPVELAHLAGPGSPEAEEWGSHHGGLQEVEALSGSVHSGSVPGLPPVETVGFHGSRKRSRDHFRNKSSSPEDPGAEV

T4: TSSC4 ΔHom4-GFP (human) (UniProt Q9Y5U2)
T4 sequence: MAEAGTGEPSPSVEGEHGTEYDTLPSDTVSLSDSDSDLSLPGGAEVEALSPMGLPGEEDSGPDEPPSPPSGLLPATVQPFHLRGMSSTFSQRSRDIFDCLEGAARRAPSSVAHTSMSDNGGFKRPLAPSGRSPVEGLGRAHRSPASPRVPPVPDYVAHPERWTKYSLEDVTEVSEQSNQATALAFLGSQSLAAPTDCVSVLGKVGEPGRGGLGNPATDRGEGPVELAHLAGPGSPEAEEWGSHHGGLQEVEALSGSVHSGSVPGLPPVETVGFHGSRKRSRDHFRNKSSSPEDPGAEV

T5: TSSC4 Δ201–250-GFP (human) (UniProt Q9Y5U2)
T5 sequence: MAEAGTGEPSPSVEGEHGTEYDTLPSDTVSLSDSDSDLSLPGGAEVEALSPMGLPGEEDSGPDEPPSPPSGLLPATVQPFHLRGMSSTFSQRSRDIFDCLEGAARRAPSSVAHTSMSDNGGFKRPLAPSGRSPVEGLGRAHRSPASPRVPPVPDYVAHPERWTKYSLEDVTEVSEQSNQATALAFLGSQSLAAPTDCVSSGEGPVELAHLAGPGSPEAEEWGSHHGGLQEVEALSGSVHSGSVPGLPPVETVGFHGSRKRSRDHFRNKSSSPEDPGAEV

B1: DDX23, Q9BUQ8 1-820 (protein)
chain: MAGELADKKDRDASPSKEERKRSRTPDRERDRDRDRKSSPSKDRKRHRSRDRRRGGSRSRSRSRSKSAERERRHKERERDKERDRNKKDRDRDKDGHRRDKDRKRSSLSPGRGKDFKSRKDRDSKKDEEDEHGDKKPKAQPLSLEELLAKKKAEEEAEAKPKFLSKAEREAEALKRRQQEVEERQRMLEEERKKRKQFQDLGRKMLEDPQERERRERRERMERETNGNEDEEGRQKIREEKDKSKELHAIKERYLGGIKKRRRTRHLNDRKFVFEWDASEDTSIDYNPLYKERHQVQLLGRGFIAGIDLKQQKREQSRFYGDLMEKRRTLEEKEQEEARLRKLRKKEAKQRWDDRHWSQKKLDEMTDRDWRIFREDYSITTKGGKIPNPIRSWKDSSLPPHILEVIDKCGYKEPTPIQRQAIPIGLQNRDIIGVAETGSGKTAAFLIPLLVWITTLPKIDRIEESDQGPYAIILAPTRELAQQIEEETIKFGKPLGIRTVAVIGGISREDQGFRLRMGCEIVIATPGRLIDVLENRYLVLSRCTYVVLDEADRMIDMGFEPDVQKILEHMPVSNQKPDTDEAEDPEKMLANFESGKHKYRQTVMFTATMPPAVERLARSYLRRPAVVYIGSAGKPHERVEQKVFLMSESEKRKKLLAILEQGFDPPIIIFVNQKKGCDVLAKSLEKMGYNACTLHGGKGQEQREFALSNLKAGAKDILVATDVAGRGIDIQDVSMVVNYDMAKNIEDYIHRIGRTGRAGKSGVAITFLTKEDSAVFYELKQAILESPVSSCPPELANHPDAQHKPGTILTKKRREETIFA
B2: TXNL4A (protein, UniProt P83876 1-142)
chain: MSYMLPHLHNGWQVDQAILSEEDRVVVIRFGHDWDPTCMKMDEVLYSIAEKVKNFAVIYLVDITEVPDFNKMYELYDPCTVMFFFRNKHIMIDLGTGNNNKINWAMEDKQEMVDIIETVYRGARKGRGLVVSPKDYSTKYRY
B3: SNRNP40 (protein, UniProt Q96DI7 1-357)
chain: MIEQQKRKGPELPLVPVKRQRHELLLGAGSGPGAGQQQATPGALLQAGPPRCSSLQAPIMLLSGHEGEVYCCKFHPNGSTLASAGFDRLILLWNVYGDCDNYATLKGHSGAVMELHYNTDGSMLFSASTDKTVAVWDSETGERVKRLKGHTSFVNSCYPARRGPQLVCTGSDDGTVKLWDIRKKAAIQTFQNTYQVLAVTFNDTSDQIISGGIDNDIKVWDLRQNKLTYTMRGHADSVTGLSLSSEGSYLLSNAMDNTVRVWDVRPFAPKERCVKIFQGNVHNFEKNLLRCSWSPDGSKIAAGSADRFVYVWDTTSRRILYKLPGHAGSINEVAFHPDEPIIISASSDKRLYMGEIQ
B4: PLRG1 (protein, UniProt O43660 1-514)
chain: MVEEVQKHSVHTLVFRSLKRTHDMFVADNGKPVPLDEESHKRKMAIKLRNEYGPVLHMPTSKENLKEKGPQNATDSYVHKQYPANQGQEVEYFVAGTHPYPPGPGVALTADTKIQRMPSESAAQSLAVALPLQTKADANRTAPSGSEYRHPGASDRPQPTAMNSIVMETGNTKNSALMAKKAPTMPKPQWHPPWKLYRVISGHLGWVRCIAVEPGNQWFVTGSADRTIKIWDLASGKLKLSLTGHISTVRGVIVSTRSPYLFSCGEDKQVKCWDLEYNKVIRHYHGHLSAVYGLDLHPTIDVLVTCSRDSTARIWDVRTKASVHTLSGHTNAVATVRCQAAEPQIITGSHDTTIRLWDLVAGKTRVTLTNHKKSVRAVVLHPRHYTFASGSPDNIKQWKFPDGSFIQNLSGHNAIINTLTVNSDGVLVSGADNGTMHLWDWRTGYNFQRVHAAVQPGSLDSESGIFACAFDQSESRLLTAEADKTIKVYREDDTATEETHPVSWKPEIIKRKRF
B5: PRPF6 (protein, UniProt O94906 1-941)
chain: MNKKKKPFLGMPAPLGYVPGLGRGATGFTTRSDIGPARDANDPVDDRHAPPGKRTVGDQMKKNQAADDDDEDLNDTNYDEFNGYAGSLFSSGPYEKDDEEADAIYAALDKRMDERRKERREQREKEEIEKYRMERPKIQQQFSDLKRKLAEVTEEEWLSIPEVGDARNKRQRNPRYEKLTPVPDSFFAKHLQTGENHTSVDPRQTQFGGLNTPYPGGLNTPYPGGMTPGLMTPGTGELDMRKIGQARNTLMDMRLSQVSDSVSGQTVVDPKGYLTDLNSMIPTHGGDINDIKKARLLLKSVRETNPHHPPAWIASARLEEVTGKLQVARNLIMKGTEMCPKSEDVWLEAARLQPGDTAKAVVAQAVRHLPQSVRIYIRAAELETDIRAKKRVLRKALEHVPNSVRLWKAAVELEEPEDARIMLSRAVECCPTSVELWLALARLETYENARKVLNKARENIPTDRHIWITAAKLEEANGNTQMVEKIIDRAITSLRANGVEINREQWIQDAEECDRAGSVATCQAVMRAVIGIGIEEEDRKHTWMEDADSCVAHNALECARAIYAYALQVFPSKKSVWLRAAYFEKNHGTRESLEALLQRAVAHCPKAEVLWLMGAKSKWLAGDVPAARSILALAFQANPNSEEIWLAAVKLESENDEYERARRLLAKARSSAPTARVFMKSVKLEWVQDNIRAAQDLCEEALRHYEDFPKLWMMKGQIEEQKEMMEKAREAYNQGLKKCPHSTPLWLLLSRLEEKIGQLTRARAILEKSRLKNPKNPGLWLESVRLEYRAGLKNIANTLMAKALQECPNSGILWSEAIFLEARPQRRTKSVDALKKCEHDPHVLLAVAKLFWSQRKITKAREWFHRTVKIDSDLGDAWAFFYKFELQHGTEEQQEEVRKRCESAEPRHGELWCAVSKDIANWQKKIGDILRLVAGRIKNTF
B6: CD2BP2 (protein, UniProt O95400 1-341)
chain: MPKRKVTFQGVGDEEDEDEIIVPKKKLVDPVAGSGGPGSRFKGKHSLDSDEEEDDDDGGSSKYDILASEDVEGQEAATLPSEGGVRITPFNLQEEMEEGHFDADGNYFLNRDAQIRDSWLDNIDWVKIRERPPGQRQASDSEEEDSLGQTSMSAQALLEGLLELLLPRETVAGALRRLGARGGGKGRKGPGQPSSPQRLDRLSGLADQMVARGNLGVYQETRERLAMRLKGLGCQTLGPHNPTPPPSLDMFAEELAEEELETPTPTQRGEAESRGDGLVDVMWEYKWENTGDAELYGPFTSAQMQTWVSEGYFPDGVYCRKLDPPGGQFYNSKRIDFDLYT

Tests used:
Assay in all cases: co-IP; anti-GFP or anti-FLAG antibodies pre-bound to agarose beads, overnight at 4 °C; lysates of transfected HeLa cells in NET2 buffer (50 mM Tris-HCl pH 7.4, 150 mM NaCl, 0.05% Nonidet P-40); western blot; also from RNase A treated lysates (Fig. 1d)
[1] = molecular target: TSSC4-GFP (human), Q9Y5U2; conditions: remark: other sources report otherwise
TSSC4-GFP (human) = TSSC4-GFP (human) (UniProt Q9Y5U2)
TSSC4 ΔHom2-GFP (human) = molecular target: T1, TSSC4 ΔHom2-GFP (human)
[2] = molecular target: T2, TSSC4 Δ51–100-GFP (human)
[3] = molecular target: T3, TSSC4 Δ151–200-GFP (human)
TSSC4 ΔHom4-GFP (human) = molecular target: T4, TSSC4 ΔHom4-GFP (human)
[4] = molecular target: T5, TSSC4 Δ201–250-GFP (human)

Binder | binding [1] | binding (TSSC4-GFP (human)) | binding (TSSC4 ΔHom2-GFP (human)) | binding [2] | binding [3] | binding (TSSC4 ΔHom4-GFP (human)) | binding [4]
B1 | binds | – | – | – | – | – | –
B2 | – | binds | – | – | – | – | –
B3 | – | binds | no binding | no binding | binds | – | –
B4 | – | binds | – | – | binds | binds weakly | binds weakly
B5 | – | – | no binding | no binding | binds | – | –
B6 | – | – | no binding | no binding | binds | – | –
